The experiment is described as follows: qHTS Assay for Lipid Storage Modulators in Drosophila S3 Cells.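 On cell number change: cells counted by Cell Tracker Red CMTPX staining in the red channel.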 The following applies: BODIPY lipid droplet fluorescence, 18-24 h; for cell number change: measured here: cell count max response, cells fed with added oleic acid. A digest of the protocol: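 Drosophila S3 cells loaded with oleic acid (400 uM, as added) and compounds at several concentrations; lipid droplets imaged by 488-nm laser-scanning cytometry, 500–530 nm intensity and object ratio to cell channel. Percent activity normalized to 20 uM Triacsin C.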
Background: qHTS replaces the single test concentration by a dilution series.

Setting [1] is: measured here: cell number channel AC50, cells fed with added oleic acid.
Where [2] appears, read: measured here: lipid fluorescence (Fed channel) AC50, cells fed with added oleic acid.

The list shows a part of the results. The main result of the screen is listed elsewhere. These columns were measured beside it and carry no call. The list favours compounds with an active or inconclusive main result. The note in brackets gives the kind of curve behind each potency; many fits are weak.

On to `Cc1noc(C)c1C(=O)OCC(=O)Nc1ccc(C(N)=O)cc1`, for which the cell number change was -42.3%. In addition, the AC50 under setting [1] was 0.731 µM [falling, partial curve, poor fit].
Consider `COc1ccc(C(=O)N=c2sc3ccccc3n2C)cc1`, for which the cell number change came to 12.9%. Besides, under setting [2], the AC50 was 0.164 µM [rising, full curve, poor fit].
`CCOCCCNC(=O)c1cn(CC)c2ccc(S(=O)(=O)N3CCCC3)cc2c1=O`: the cell number change was -10.3%.
On the same count and under the same terms, the figure for `COc1cccc(CN(C)C(=O)c2cc(-c3ccc(OC)c(OC)c3)nc3ccccc23)c1` is 16.2%.
In the case of `O=C(CSc1nc2c(oc3ccccc32)c(=O)n1CC1CCCO1)NCc1ccccc1` (stereo not given), the cell number change is -17.2%. The AC50 under setting [2] is 29.1 µM [falling, single point].
With `Cc1cc(C)n2nc(C(=O)OC(C)C(=O)c3ccccc3)nc2n1` (stereo not given), the cell number change turned out to be 8.26%. The AC50 under setting [2] is 2.91 µM [falling, full curve].
On to `Cc1cc(NC(=O)CSCC(=O)OCC(=O)c2cccc(Br)c2)no1`, for which the cell number change was determined as 1.51%.
Consider `OC(COc1cccc2ccccc12)CN1CCN(c2ccccc2Cl)CC1` (stereo not given), for which the cell number change was -35.6%. Under setting [1], the AC50 is 18.4 µM [falling, single point]. Under setting [2], the AC50 is 2.91 µM [falling, partial curve].
As to `O=C(CN1C(=O)C2C3CCC(C3)C2C1=O)OCC(=O)c1ccccc1` (stereo not given), the cell number change stood at 39.5%. Under setting [1], the AC50 was 29.1 µM [rising, single point]. For the same molecule, the concentration at half-maximal activity (AC50) under setting [2] was 18.4 µM [rising, single point].
Regarding `CCN(CC(=O)Nc1ccccc1C(F)(F)F)C(=O)CN1C(=O)NC(C)(c2ccccc2)C1=O` (stereo not given), the cell number change worked out at 21.5%. For the same molecule, the AC50 under setting [2] was 29.1 µM [falling, single point].
With `c1ccc(-c2ccc(OCCCn3cncn3)cc2)cc1`, the cell number change was -21%. Moreover, the concentration at half-maximal activity (AC50) under setting [2] is 20.6 µM [rising, partial curve, poor fit].
As for `CCc1ccc(/C=C2\CN(CC)Cc3c2nc2ccccc2c3C(=O)O)cc1`, the cell number change is -2.23%. Further, the AC50 under setting [2] is 0.146 µM [rising, full curve, poor fit].
Consider `O=C(CNS(=O)(=O)c1ccc(Br)s1)NCc1ccc(F)cc1`, for which the cell number change came out at 5.65%. In addition, the AC50 under setting [2] is 0.58 µM [falling, single point].
Turning to `CC(C)c1ccc(NC(=O)Cc2cn(C)c3ccccc23)cc1`, the cell number change stood at 33.1%. Under setting [1], the AC50 is 29.1 µM [rising, single point].
In the case of `CCc1cc(OCCCCNCc2ccccc2)ccc1Cl`, the cell number change is -59.3%. Further, under setting [1], the AC50 is 0.00461 µM [falling, full curve, poor fit]. Moreover, the AC50 under setting [2] was 0.00517 µM [falling, full curve, poor fit].
In the case of `CCC(=O)Nc1ccc(-c2ccc(NC(=O)CC)c(OC)c2)cc1OC`, the cell number change is 10.8%.
Same read-out and setting: the figure for `COc1ccc(C(=O)O)cc1S(=O)(=O)N(C)CCc1cccnc1` is 0.339%.
For `COc1ccc(CNC(=O)CN2CCN(S(=O)(=O)c3ccccc3)CC2)cc1`, the cell number change is -5.5%. For the same molecule, the AC50 under setting [2] is 0.82 µM [rising, full curve, poor fit].
Take `CCSc1ccc2c(c1)N(CCCN1CCN(C)CC1)c1ccccc1S2`: the cell number change was -4.85%. Also, the AC50 under setting [2] was 11.6 µM [rising, partial curve].
Consider `COC(=O)Nc1ccc2c(c1)N(C(=O)CCN(C)C)c1ccccc1CC2`, for which the cell number change was -15.7%. Moreover, the AC50 under setting [1] is 0.00461 µM [falling, full curve, poor fit]. Also, the AC50 under setting [2] is 29.1 µM [rising, single point].
Take `O=C(NCC1CCCO1)C1CCN(C(=O)c2ccc(Cl)cc2)CC1` (stereo not given): the cell number change was -171%. Further, the AC50 under setting [1] is 29.1 µM [falling, single point]. Besides, the AC50 under setting [2] is 29.1 µM [falling, single point].
On to `COc1cccc2cc(-c3cc(=O)oc4cc(C)c(OCC(C)=O)cc34)oc12`, for which the cell number change is -7.16%.
As for `COc1ccc(-n2c(COc3ccc4ccccc4c3)nnc2SCC(=O)NCc2ccco2)cc1`, the cell number change was -9.97%. The AC50 under setting [1] was 0.461 µM [rising, full curve, poor fit].
In the case of `COc1cccc(CNC(=O)C2CCCN(c3nn4c(=O)cc(C)nc4s3)C2)c1OC` (stereo not given), the cell number change turned out to be 75.3%. The concentration at half-maximal activity (AC50) under setting [1] is 11.6 µM [rising, partial curve]. Besides, under setting [2], the AC50 is 9.2 µM [rising, partial curve].
Take `COC(=O)c1cc(C(=O)OC)n(Cc2ccc(C)cc2)c1C`: the cell number change turned out to be 36.6%. For the same molecule, under setting [1], the half-maximal activity concentration (AC50) was 0.116 µM [rising, full curve, poor fit]. Further, the AC50 under setting [2] is 0.184 µM [rising, full curve, poor fit].
As to `CCC(CO)NC1=CC(=O)CCC1` (stereo not given), the cell number change is -20.2%. In addition, under setting [1], the concentration at half-maximal activity (AC50) is 0.517 µM [rising, single point]. Besides, under setting [2], the AC50 is 32.6 µM [falling, single point].
On to `CC(CN1CCCCC1)OC(=O)c1ccco1` (stereo not given), for which the cell number change came to 3.95%.
In the case of `Cc1cccc(CN2C(=O)N/C(=C/c3cc(C)n(-c4cc(C)ccn4)c3C)C2=O)c1`, the cell number change is -70%. Further, the AC50 under setting [1] was 16.4 µM [falling, partial curve]. Under setting [2], the AC50 is 29.1 µM [falling, single point].
In the case of `COc1ccc(/C=C(/NC(=O)c2ccccc2)c2nc3ccc(Cl)cc3[nH]2)cc1OC`, the cell number change came to 4.94%.
Same read-out and setting: the figure for `COc1ccc(N2CCN(CCCNC(=S)Nc3c(C)cccc3C)CC2)cc1` is 4.84%.
For `COc1ccccc1-c1cc(N)n[nH]1`, the AC50 was 1.16 µM [rising, partial curve] under setting [1] and 4.11 µM [rising, single point] under setting [2].
Consider `O=C(CCn1c(=S)[nH]c2ccccc2c1=O)Nc1ccc(F)cc1`, for which the cell number change came out at 49.5%. The AC50 under setting [1] was 1.84 µM [rising, partial curve, poor fit].
`Cc1ccc(C(=O)COC(=O)CCC(=O)NC2CCCCC2)cc1C`: the cell number change is 3.64%. Further, the AC50 under setting [2] was 20.6 µM [falling, partial curve].
On to `COc1ccc(-c2nc(CS(=O)CC(=O)NCc3ccc4c(c3)OCO4)c(C)o2)cc1OC` (stereo not given), for which the cell number change is -49.9%. Also, the AC50 under setting [1] was 29.1 µM [falling, single point].
On to `Cc1nc2ccc(NC3=NCCCCC3)cc2s1`, for which the cell number change turned out to be 3.97%. Further, the AC50 under setting [2] is 2.06 µM [falling, full curve, poor fit].
In the case of `CC(C)CNC(=S)NC(=O)c1ccc(Cl)cc1`, the cell number change was 21.4%. Further, the AC50 under setting [2] was 9.2 µM [rising, partial curve, poor fit].
Consider `Clc1ccc(OCCCCSc2ncccn2)cc1`, for which the cell number change was determined as 58.3%. The half-maximal activity concentration (AC50) under setting [1] is 18.4 µM [rising, single point].
Turning to `COc1ccc(NS(=O)(=O)c2ccc(OCC(=O)N3CCOCC3)cc2)cc1`, the cell number change is 10.6%. Moreover, under setting [2], the AC50 was 0.259 µM [rising, full curve, poor fit].
For `Cc1cc(Cl)ccc1NC(=O)CN1C(=O)NC2(CCCc3ccccc32)C1=O` (stereo not given), the cell number change is 48.4%. Moreover, the concentration at half-maximal activity (AC50) under setting [1] is 0.058 µM [rising, full curve]. Besides, the AC50 under setting [2] is 0.366 µM [rising, partial curve].
Turning to `Oc1ccc(-c2nccc(-c3ccc(Br)cc3)n2)cc1`, the cell number change is -44.6%. The AC50 under setting [1] was 32.6 µM [falling, single point]. Moreover, the concentration at half-maximal activity (AC50) under setting [2] was 29.1 µM [falling, single point].
Regarding `Cn1nc(-c2ccccc2)cc1NC(=O)Nc1ccc(C(C)(C)C)cc1`, the cell number change is -28.5%. Besides, the AC50 under setting [2] is 14.6 µM [falling, single point].
As for `COc1ccccc1C(=O)NCCC(=O)N(C)CC(=O)Nc1ccccc1Br`, the AC50 under setting [1] is 6.51 µM [rising, single point].
Regarding `Cc1c(O)cccc1C(=O)N[C@@H](CSc1ccccc1)[C@H](O)CN1C[C@H]2CCCC[C@H]2C[C@H]1C(=O)NC(C)(C)C`, the cell number change was 45.1%. In addition, under setting [1], the AC50 is 14.6 µM [rising, partial curve, poor fit]. The AC50 under setting [2] was 32.6 µM [falling, single point].
As for `O=C(COc1coc(CN2CCc3ccccc32)cc1=O)N1CCCCC1`, under setting [1], the AC50 was 0.146 µM [rising, full curve, poor fit].
In the case of `CCOC(=O)c1cc(-c2cc(OC)c(OC)c(OC)c2)nc2c1c(=O)[nH]c(=O)n2Cc1ccccc1`, the cell number change is -23.1%.
As to `Cc1ccc(S(=O)(=O)N2CCCCC2)cc1C(=O)Nc1ccccn1`, the cell number change was -29.6%. Moreover, the AC50 under setting [1] was 0.731 µM [falling, full curve, poor fit].
With `COc1ccc(/C=C2\SC(=S)N(N3C(=O)CCC3=O)C2=O)cc1O`, the cell number change is -18.6%.
As to `CCOC(=O)Nc1sc2c(c1C#N)CCCC2`, the cell number change is -32.5%. Under setting [1], the AC50 was 0.58 µM [falling, full curve, poor fit]. For the same molecule, the half-maximal activity concentration (AC50) under setting [2] was 29.1 µM [rising, single point].
Turning to `Cc1ccc(-c2nn3c(C)nnc3s2)cc1NC(=O)c1cccs1`, the cell number change turned out to be 17%. Under setting [2], the AC50 is 0.116 µM [rising, full curve].
Regarding `Clc1ccc(CN2CCc3c([nH]c4ccccc34)C2)cc1Cl`, the cell number change was -95.5%. Also, the AC50 under setting [1] was 18.4 µM [falling, partial curve]. For the same molecule, the AC50 under setting [2] is 16.4 µM [falling, partial curve].
As for `Cc1[nH]c2ccccc2c1/C=N\NC(=O)c1ccco1`, the cell number change was -19.3%. Also, the AC50 under setting [2] was 29.1 µM [falling, single point].
With `O=c1cc(O)c(-c2ccccc2Cl)c(Cl)[nH]1`, the cell number change was -31.4%. Also, the AC50 under setting [1] was 1.3 µM [falling, full curve]. Besides, under setting [2], the AC50 was 3.66 µM [falling, full curve].
For the molecule `CC(C)(C)c1cc(C(=O)NCc2ccccc2)ccn1`, the cell number change is -31.8%. The AC50 under setting [1] was 9.2 µM [falling, partial curve, poor fit]. Moreover, the AC50 under setting [2] was 8.2 µM [falling, partial curve].
On to `CCOc1ccc(N(CC(=O)N/N=C/c2ccc(OC(C)C)cc2)S(C)(=O)=O)cc1`, for which the cell number change is -10.1%. Under setting [2], the AC50 was 0.517 µM [rising, full curve, poor fit].
Consider `O=S1OCCN1c1ccccc1` (stereo not given), for which the cell number change turned out to be 11.3%. Moreover, the AC50 under setting [2] is 29.1 µM [rising, single point].
As for `CCCC(c1nnnn1CC(=O)OCC)N(Cc1cc2ccc(C)cc2[nH]c1=O)C1CCCC1` (stereo not given), the cell number change is -26.9%. Under setting [1], the AC50 is 3.26 µM [falling, full curve, poor fit].
On to `Cc1ccc(NC(=O)CN2C(=O)NC(C)(C3CC3)C2=O)c(C)c1` (stereo not given), for which the cell number change is -39.3%. Also, the half-maximal activity concentration (AC50) under setting [1] was 5.8 µM [falling, single point]. Further, the half-maximal activity concentration (AC50) under setting [2] is 29.1 µM [falling, single point].
On to `COCCN(C(=O)COC(=O)c1cc2ccccc2cc1O)c1c(N)n(Cc2ccccc2)c(=O)[nH]c1=O`, for which the cell number change is -10.4%. The AC50 under setting [2] is 23.1 µM [falling, single point].

Usually AC50 stands for the midpoint of the concentration-response curve, whichever way the signal moves.

These data come from PubChem BioAssay AID2685 (National Center for Advancing Translational Sciences (NCATS), 2010).
